Patent US20180370912A1, “COMPOUNDS AND METHODS FOR TREATING DISEASES MEDIATED BY PROTEIN DISULFIDE ISOMERASE” (Beth Israel Deaconess Medical Center, Inc., priority 2017, published 2018)
At least one structure is not confirmed: it was looked up by name or label, or the drawing left a doubt.

By UniProt entry, the sequences of proteins in these tests, tags left out. Residues count along the entry.
UniProt P07237, 18-508: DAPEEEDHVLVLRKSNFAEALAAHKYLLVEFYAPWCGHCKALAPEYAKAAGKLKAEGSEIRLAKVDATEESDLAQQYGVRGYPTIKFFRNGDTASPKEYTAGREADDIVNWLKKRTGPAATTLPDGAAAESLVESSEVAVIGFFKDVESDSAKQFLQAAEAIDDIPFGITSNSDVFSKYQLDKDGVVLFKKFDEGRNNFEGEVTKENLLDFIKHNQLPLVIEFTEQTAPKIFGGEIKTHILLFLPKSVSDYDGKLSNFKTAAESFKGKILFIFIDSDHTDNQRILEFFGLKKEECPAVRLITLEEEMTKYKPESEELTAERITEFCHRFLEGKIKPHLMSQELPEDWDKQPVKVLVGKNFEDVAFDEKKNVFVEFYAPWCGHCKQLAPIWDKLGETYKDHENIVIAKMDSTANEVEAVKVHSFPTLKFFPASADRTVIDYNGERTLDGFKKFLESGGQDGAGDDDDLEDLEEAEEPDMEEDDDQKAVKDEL

Assays:
thrombus formation = conditions: literature; cited from earlier work
PDI = target: T1, PDI (Homo sapiens, UniProt P07237); experiment: Di-eosin-GSSG disulfide reductase assay; type: biochemical
T1 construct: FLAG; made in house; host or cells: Escherichia coli Origami B (DE3), pET-15b
Experimental: The probe di-eosin glutathione disulfide, di-eosin-GSSG, was prepared as previously described in Raturi, A., Vacratsis, P. O., Seslija, D., Lee, L. & Mutus, B., Biochem J 391, 351-357 (2005). Reductase activity of purified thiol isomerases and PDI domains was monitored in a 96-well fluorescence plate format. PDI, AGHA-PDI, ERpS, ERp57, ERp72 and PDI domains were assayed at 50 nM in the presence or absence of the indicated small molecules, peptides or cathepsin G. The assay included 100 mM potassium phosphate (pH 7.4) containing 2 mM EDTA, 5 μM DTT and 150 nM of the di-eosin GSSG probe. The increase in fluorescence was determined for 20 minutes by excitation at 520 nm and emission at 550 nm in a Synergy Biotek 4. The reduction of 150 nM di-eosin-GSSG by 5 μM DTT in the presence or absence of mentioned small molecules, peptides or proteins served as a negative control.
Michaelis Menten analysis was assayed using PDI at 20 nM and small molecules, peptides or cathepsin G at concentrations causing maximal augmentation under similar buffer conditions as described above. 8-point response curves were generated using a range of different di-eosin-GSSG concentrations (50-5000 nM). Enzyme kinetics analysis was performed using Graphpad Prism 5.0.

Q: With `C[C@@H]1O[C@@H](OC[C@H]2O[C@@H](Oc3c(-c4ccc(O)c(O)c4)oc4cc(O)cc(O)c4c3=O)[C@H](O)[C@@H](O)[C@@H]2O)[C@H](O)[C@H](O)[C@H]1O` [quercetin-3-rutinoside] as the compound, how does the “thrombus formation in vivo” value (thrombus formation) read?
A: inhibits thrombus formation in vivo

Q: What about the “cleavage of di-eosin-GSSG probe by PDI (reductase activity at catalytic cysteines)” value (PDI) of the same compound?
A: blocked PDI-mediated cleavage of di-eosin-GSSG
